PubChem BioAssay AID504764 – Drosophila RNAi Screening Center | 2011
Purpose: 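Genes whose knock-down alters Notch-dependent transcription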 (primary screen). System: Drosophila Kc167 cells. Reagents: long dsRNA against Drosophila genes. Timing: about 5 days (4 days dsRNA, then 24 h after transfection). Treatment: transfection of constitutively active membrane-tethered Notch lacking the extracellular domain, read 24 h later. Measured: 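Firefly luciferase from an E(spl)m3 reporter with active Notch, plus control-promoter and uninduced reporter wells for normalisation; unnormalised counts, duplicate wells a and b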. Scale: induced reporter light, run 1, well a and induced reporter light, run 1, well b: higher = more light from the Notch target reporter with active Notch; control promoter light, run 1, well a and control promoter light, run 1, well b: higher = more light from the viral control promoter (cell number, transfection, viability); uninduced reporter light, run 1, well a: higher = more light from the Notch target reporter without active Notch. Rule for the call: 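Wells with low control signal or poorly matching duplicates excluded; duplicates averaged; per source plate, z beyond ±2 for induced/control log2 ratio or beyond ±1.8 for induced/uninduced marks a hit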. Calls: active = modifier hit (raised or lowered Notch signal); inactive = not a hit.
The screen tested about 22,000 reagents; below is an unselected part of those that have a named target and a result. In the full data, 403 (1.9%) got an active call. 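Unnormalised raw counts per well; ratio z-scores behind the hit calls and whether each hit raises or lowers signal are not deposited.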 The numbers tell different reagents against one gene apart. Not stated in the record: the amount of reagent.

CG4151 gave induced reporter light, run 1, well a = 1.47e5; induced reporter light, run 1, well b = 1.56e5; control promoter light, run 1, well a = 2.74e5; control promoter light, run 1, well b = 2.61e5; uninduced reporter light, run 1, well a = 12210; inactive.
After knock-down of loopin-1, the record shows induced reporter light, run 1, well a = 1.32e5; induced reporter light, run 1, well b = 1.32e5; control promoter light, run 1, well a = 2.61e5; control promoter light, run 1, well b = 2.23e5; uninduced reporter light, run 1, well a = 9000; inactive.
With knock-down of Atg101, the screen gave induced reporter light, run 1, well a = 73450; induced reporter light, run 1, well b = 99235; control promoter light, run 1, well a = 88360; control promoter light, run 1, well b = 99205; uninduced reporter light, run 1, well a = 8470; inactive.
Silencing of Golgin104 came out at: induced reporter light, run 1, well a = 1.79e5; induced reporter light, run 1, well b = 1.20e5; control promoter light, run 1, well a = 90390; control promoter light, run 1, well b = 1.18e5; uninduced reporter light, run 1, well a = 10945; inactive.
With knock-down of CG33322, the screen gave induced reporter light, run 1, well a = 39100; induced reporter light, run 1, well b = 29520; control promoter light, run 1, well a = 38250; control promoter light, run 1, well b = 28980; uninduced reporter light, run 1, well a = 2955; inactive.
Knock-down of CG17233 gave: induced reporter light, run 1, well a = 1.51e5; induced reporter light, run 1, well b = 1.86e5; control promoter light, run 1, well a = 99820; control promoter light, run 1, well b = 90385; uninduced reporter light, run 1, well a = 9815; inactive.
After knock-down of bdwf, the record shows induced reporter light, run 1, well a = 87630; induced reporter light, run 1, well b = 90280; control promoter light, run 1, well a = 83275; control promoter light, run 1, well b = 75985; uninduced reporter light, run 1, well a = 8960; inactive.
CG5292 scored induced reporter light, run 1, well a = 1.91e5; induced reporter light, run 1, well b = 2.22e5; control promoter light, run 1, well a = 2.38e5; control promoter light, run 1, well b = 1.86e5; uninduced reporter light, run 1, well a = 17535; inactive.
CG32032 showed induced reporter light, run 1, well a = 1.41e5; induced reporter light, run 1, well b = 1.94e5; control promoter light, run 1, well a = 2.21e5; control promoter light, run 1, well b = 2.24e5; uninduced reporter light, run 1, well a = 12715; inactive.
CR31822 showed induced reporter light, run 1, well a = 88660; induced reporter light, run 1, well b = 77320; control promoter light, run 1, well a = 63820; control promoter light, run 1, well b = 73575; uninduced reporter light, run 1, well a = 6475; inactive.

In a second layout: results already given
| target gene | dsRNA no. | induced reporter light, run 1, well a | induced reporter light, run 1, well b | control promoter light, run 1, well a | control promoter light, run 1, well b | uninduced reporter light, run 1, well a | call |
| --- | --- | --- | --- | --- | --- | --- | --- |
| loopin-1 | 1 | 1.32e5 | 1.32e5 | 2.61e5 | 2.23e5 | 9000 | inactive |
| Atg101 | 1 | 73450 | 99235 | 88360 | 99205 | 8470 | inactive |

The results go on.
Knock-down of mei-W68 gave: induced reporter light, run 1, well a = 90640; induced reporter light, run 1, well b = 95085; control promoter light, run 1, well a = 1.76e5; control promoter light, run 1, well b = 1.69e5; uninduced reporter light, run 1, well a = 9185; inactive.
With knock-down of CG9799, the record shows induced reporter light, run 1, well a = 1.16e5; induced reporter light, run 1, well b = 1.25e5; control promoter light, run 1, well a = 96635; control promoter light, run 1, well b = 98600; uninduced reporter light, run 1, well a = 7700; inactive.
Cpr76Bb gave induced reporter light, run 1, well a = 1.28e5; induced reporter light, run 1, well b = 1.35e5; control promoter light, run 1, well a = 1.01e5; control promoter light, run 1, well b = 1.03e5; uninduced reporter light, run 1, well a = 13585; inactive.
After knock-down of Cpr65Ea the results were induced reporter light, run 1, well a = 1.71e5; induced reporter light, run 1, well b = 2.34e5; control promoter light, run 1, well a = 2.37e5; control promoter light, run 1, well b = 2.57e5; uninduced reporter light, run 1, well a = 12655; inactive.
With knock-down of Ir40a #1, the screen gave induced reporter light, run 1, well a = 39690; induced reporter light, run 1, well b = 52905; control promoter light, run 1, well a = 40570; control promoter light, run 1, well b = 52965; uninduced reporter light, run 1, well a = 3140; inactive.
Depletion of Ir40a #2 came out at: induced reporter light, run 1, well a = 58825; induced reporter light, run 1, well b = 54565; control promoter light, run 1, well a = 36580; control promoter light, run 1, well b = 49320; uninduced reporter light, run 1, well a = 2490; inactive.
Against Pxt the deposit lists induced reporter light, run 1, well a = 2.28e5; induced reporter light, run 1, well b = 1.39e5; control promoter light, run 1, well a = 1.62e5; control promoter light, run 1, well b = 1.63e5; uninduced reporter light, run 1, well a = 10405; inactive.
For CG3632 #1, the entry reads induced reporter light, run 1, well a = 1.10e5; induced reporter light, run 1, well b = 1.17e5; control promoter light, run 1, well a = 1.15e5; control promoter light, run 1, well b = 1.20e5; uninduced reporter light, run 1, well a = 9110; inactive.
Silencing of CG3632 #2 resulted in: induced reporter light, run 1, well a = 1.90e5; induced reporter light, run 1, well b = 1.80e5; control promoter light, run 1, well a = 2.40e5; control promoter light, run 1, well b = 2.56e5; uninduced reporter light, run 1, well a = 15680; inactive.
